In patent publication US10335446B2, “Methods of treating diseases using grape proteins” (priority 2015, dated 2019):

Experiment: Diet-induced obesity (DIO) mice study: blood glucose, insulin, plasma lipids, body weight, food intake
Assay type: in vivo, C57BL/6J male mice
Conditions: 0-8 weeks, Atorvastatin 20 mg/kg, test articles tid po 10 mL/kg + ad libitum
Experimental: The efficacy of RAAS products in mice was evaluated according to the following experimental design of therapeutics in diet-induced obesity (DIO) mice. DIO mice creation: After one-week acclimation, the mice are fed a high fat pelleted diet (D12492i; Research Diets, Inc) and fresh water, ad libitum. Typically, C57BL/6J male mice become obese, mildly to moderately hyperglycemic and develop impaired glucose tolerance after 12-14 weeks of high fat diet treatment. Mice are preferably 40-50 g or greater at the time of the study. Group setting (n=10, 4 mice for immunology): […] Body weight and food intake were recorded twice per week. BG, insulin, TG, HDL-C, LDL-C, and TCHO in plasma once per two weeks (baseline were tested before study start (FIG. 68)). Data were analyzed and graphed by Graph Pad Prism.

CC(C)c1c(C(=O)Nc2ccccc2)c(-c2ccccc2)c(-c2ccc(F)cc2)n1CC[C@@H](O)C[C@@H](O)CC(=O)O [Atorvastatin]
plasma HDL level: significantly decrease
plasma LDL level: trend to decrease
plasma TCHO level: trend to decrease
plasma TG level: significantly decrease
